Results are given in words; binding and its absence hold for the method and conditions named.
Assays:
[1] = molecular target: ARC CARD domain (amino acids 1-95), wild type (human) (UniProt O60936); test: SEC-MALS; size exclusion chromatography and MALS in the presence of high salt (1.5 M NaCl); both purified
[2] = molecular target: ARC CARD domain (amino acids 1-95), wild type (human) (UniProt O60936); test: SEC-MALS; size exclusion chromatography and MALS at low pH (pH 3); both purified
[3] = molecular target: ARC CARD (1-95) R56E (human) (UniProt O60936); test: native gel or EMSA; native PAGE, Phast System, 8-25% gradient gels; separately purified proteins pre-incubated at room temperature for 1 hour; Coomassie staining; both purified
[4] = molecular target: ARC CARD (1-95) R56E (human) (UniProt O60936); test: SEC-MALS; Superdex 200 HR 10/30 equilibrated in appropriate buffer, coupled to three-angle light scattering and refractive index detectors, 0.2 ml/min; both purified
[5] = molecular target: ARC CARD (1-95) R59E (human) (UniProt O60936); test: native gel or EMSA; native PAGE, Phast System, 8-25% gradient gels; separately purified proteins pre-incubated at room temperature for 1 hour; Coomassie staining; both purified
[6] = molecular target: ARC CARD (1-95) R59E (human) (UniProt O60936); test: SEC-MALS; Superdex 200 HR 10/30 equilibrated in appropriate buffer, coupled to three-angle light scattering and refractive index detectors, 0.2 ml/min; both purified
[7] = molecular target: ARC CARD (1-95) double mutant D49R, R59E (human) (UniProt O60936); test: native gel or EMSA; native PAGE, Phast System, 8-25% gradient gels; separately purified proteins pre-incubated at room temperature for 1 hour; Coomassie staining; both purified

B1: ARC CARD domain (amino acids 1-95), wild type (domain or fragment, human, UniProt O60936 1-95, looked up)
chain: MGNAQERPSETIDRERKRLVETLQADSGLLLDALLARGVLTGPEYEALDALPDAERRVRRLLLLVQGKGEAACQELLRCAQRTAGAPDPAWDWQH
notes: Apoptosis repressor with caspase recruiting domain (ARC), human (208 amino acids), CARD domain, amino acids 1-95; Expression and purification are said to be described in detail elsewhere; A selenomethionine-substituted form was made for SAD phasing; also called CARD domain of ARC; caspase recruiting domain of apoptosis repressor with CARD; not shown: His-tag, C-terminal, kept
For B1, the binding [1] was “no binding (condition: with 1.5 M NaCl)” and the binding [2] was “no binding (condition: at pH 3)”.

B2: ARC CARD (1-95) R56E (domain or fragment, UniProt O60936 1-95)
chain: MGNAQERPSETIDRERKRLVETLQADSGLLLDALLARGVLTGPEYEALDALPDAEERVRRLLLLVQGKGEAACQELLRCAQRTAGAPDPAWDWQH
B2 was tested, and the binding [3] was “no binding” and the binding [4] was “no binding”.

B3: ARC CARD (1-95) R59E (domain or fragment, UniProt O60936 1-95)
chain: MGNAQERPSETIDRERKRLVETLQADSGLLLDALLARGVLTGPEYEALDALPDAERRVERLLLLVQGKGEAACQELLRCAQRTAGAPDPAWDWQH
In the case of B3, the binding [5] is reported as “no binding” and the binding [6] is reported as “no binding”.

B4: ARC CARD (1-95) double mutant D49R, R59E (domain or fragment, UniProt O60936 1-95)
chain: MGNAQERPSETIDRERKRLVETLQADSGLLLDALLARGVLTGPEYEALRALPDAERRVERLLLLVQGKGEAACQELLRCAQRTAGAPDPAWDWQH
B4 was tested, and the binding [7] was “no binding”.
